# Experimental data published in publication PMC4121317.
# Results are given in words; binding and its absence hold for the method and conditions named.
# Biological target: T1, Cul4 (S. pombe) (UniProt O14122)
# T1 sequence: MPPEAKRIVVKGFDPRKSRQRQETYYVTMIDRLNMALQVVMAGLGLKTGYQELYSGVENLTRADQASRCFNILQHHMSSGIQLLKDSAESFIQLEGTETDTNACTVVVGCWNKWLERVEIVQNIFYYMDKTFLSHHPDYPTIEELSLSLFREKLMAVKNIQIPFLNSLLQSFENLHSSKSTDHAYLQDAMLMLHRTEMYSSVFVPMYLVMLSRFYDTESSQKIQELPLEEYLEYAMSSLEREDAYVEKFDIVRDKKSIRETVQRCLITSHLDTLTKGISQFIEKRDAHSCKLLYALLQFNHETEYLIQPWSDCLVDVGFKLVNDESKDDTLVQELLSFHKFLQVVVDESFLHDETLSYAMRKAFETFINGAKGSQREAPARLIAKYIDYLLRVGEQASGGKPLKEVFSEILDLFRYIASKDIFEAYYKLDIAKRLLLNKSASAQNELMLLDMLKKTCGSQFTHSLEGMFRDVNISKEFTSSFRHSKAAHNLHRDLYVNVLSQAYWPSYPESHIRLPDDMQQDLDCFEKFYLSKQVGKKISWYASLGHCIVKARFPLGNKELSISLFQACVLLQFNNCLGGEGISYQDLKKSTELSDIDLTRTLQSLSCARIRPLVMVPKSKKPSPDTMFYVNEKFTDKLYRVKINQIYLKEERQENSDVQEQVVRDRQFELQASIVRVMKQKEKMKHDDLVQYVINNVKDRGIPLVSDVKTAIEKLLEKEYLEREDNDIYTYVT
# Assay: two-hybrid; targeted yeast two-hybrid, GAL4 binding domain and activation domain fusions (Clontech Matchmaker system); interaction read as growth on -Leu, -Trp, -His, -Ade plates
substance,measurement,value
RFTS domain of Raf2 alone (from UniProt O74560) (domain or fragment),binding,no binding
zinc finger domain of Raf2 alone (S. pombe) (domain or fragment),binding,no binding
